{"source": "paper PMC8275550", "about": "“Developmental Neurotoxicity of Fipronil and Rotenone on a Human Neuronal In Vitro Test System” (Neurotoxicity Research, 2021)", "key": {"[1]": {"system": "differentiating NT2 cells", "format": "cell-based, human", "details": "for DNT (IC50 ratio), neuronal differentiation: positive when IC50 ratio is larger than threshold 2.77; for DNT (sign diff), neuronal differentiation: positive when at least one concentration where specific endpoint differs significantly from control and from unspecific endpoint", "procedure": "As established in our previous study (Stern et al. [2014]), cells were seeded into 96-well plates (Corning Costar, Kaiserslautern, Germany) at 80,000 cells per well and incubated in DMEM/F12 with 10 µM retinoic acid (RA) for 4 days (one media change). Cells were incubated for further 5 days (one media change) in media containing 10 µM RA and up to seven concentrations of a test compound. On day 9 (5-day exposition), cell viability was measured using a resazurin reduction assay (Trinova Biochem, Giessen, Germany). Subsequently, cells were fixed for 15 min in PFA and immunolabeled for ß-tubulin type III as above (Fig. 1a). For control purposes, photographs were taken at × 20 magnification as above. Neuronal differentiation was determined by measuring red fluorescence (excitation 568 nm, emission 603 nm) in a multiwell-plate reader (Infinite 200, TECAN, Germany). As a confirmation of the viability data, cell number was also quantified by measuring DAPI fluorescence (excitation 350 nm, emission 488 nm)."}, "NT2 neurons": {"system": "NT2 neurons", "format": "cell-based, human", "details": "for DNT (IC50 ratio), neurite outgrowth: positive when IC50 ratio is larger than threshold 2.02; for DNT (sign diff), neurite outgrowth: positive when at least one concentration where specific endpoint differs significantly from control and from unspecific endpoint", "text": "Two photographs/well at × 20 magnification were taken."}, "NT2 precursor cells [2]": {"system": "NT2 precursor cells", "format": "cell-based, human", "details": "for DNT (IC50 ratio), migration: positive when IC50 ratio is larger than threshold 2.30; for DNT (sign diff), migration: positive when at least one concentration where specific endpoint differs significantly from control and from unspecific endpoint", "procedure": "As established before (Stern et al. [2014]), NT2 precursor cells were seeded in 96-mm bacteriological grade Petri dishes (Greiner, Hamburg, Germany) at a density of 4 × 10^6–5 × 10^6 cells per dish. Within 24 h, cells formed free-floating spherical aggregates of 300–800 µm diameter. On the first day, 10 ml of culture medium was added to each Petri dish. On the next days, medium with 10 μM retinoic acid (RA) was added and changed every 2–3 days by transferring the cell suspension to centrifuge tubes and centrifuge at 200 × g for 7 min. After 9 days in culture, aggregates were gently resuspended using a Pasteur pipette, and seeded at 60,000 cells per well into black 96-well plates with flat transparent bottom (Nunc). Plates were lined with poly-D-lysine and laminin (10 µg/ml each), equipped with silicone stoppers from the Oris Cell Migration Assay (AMS Biotechnology, Abingdon, UK). Cells were allowed to adhere overnight. On the next day, stoppers were pulled leaving a monolayer of cells with a circular hole of 2-mm diameter. […] After one wash in PBS, cells were fixed for 15 min in PFA, washed twice in PBS-T and stained with DAPI (0.5 µg/ml) for 5 min, followed by two washes in PBS. A black 96-hole plastic mask leaving a central circular area of 2-mm diameter for each well was clipped to the bottom of the plate. This allows viewing only those cells that had migrated into the free areas left by the silicone stoppers during seeding (Fig. 1b). Migration was quantified by taking two photographs of each well and measuring the distance of the migration front from the black margin of the mask in using ImageJ. Occasional asymmetries caused by slight inaccuracies of silicone stopper placement were compensated by averaging measurements in four quadrants per well. […] Average null-migration values were subtracted from migrated distance before evaluation."}, "NT2 precursor cells [3]": {"system": "NT2 precursor cells", "details": "unspecific compounds; ref Stern et al. (2014) Arch. Toxicol. 88: 127–136; cited from earlier work"}, "[4]": {"system": "differentiating NT2 cells", "details": "unspecific compounds; ref Stern et al. (2014) Arch. Toxicol. 88: 127–136; cited from earlier work"}, "[5]": {"details": "threshold of prediction model 2.77"}, "[6]": {"details": "threshold of prediction model 2.02"}, "[7]": {"details": "threshold of prediction model 2.30"}}, "note": "Like-named read-outs stand apart in the source and are kept apart here."}
{"molecule": "N#Cc1nn(-c2c(Cl)cc(C(F)(F)F)cc2Cl)c(N)c1[S+]([O-])C(F)(F)F", "note": "(stereo not drawn) [Fipronil, 5-Amino-1-[2,6-dichloro-4-(trifluoromethyl)phenyl]-4-(trifluoromethylsulfinyl)pyrazole-3-carbonitrile]", "values": [{"measurement": "DNT (IC50 ratio), neuronal differentiation", "setting": "[1]", "result": "No"}, {"measurement": "DNT (sign diff), neuronal differentiation", "setting": "[1]", "result": "Yes"}, {"measurement": "IC50 ratio (IC50 unspecific/IC50 specific), neuronal differentiation", "setting": "[1]; [5]", "result": 1.58}, {"measurement": "IC50 ratio (IC50 unspecific/IC50 specific), neuronal differentiation", "setting": "[1]; threshold of prediction model 2.77, listed as fipronil", "result": 1.57}, {"measurement": "DNT (IC50 ratio), neurite outgrowth", "setting": "NT2 neurons", "result": "No"}, {"measurement": "DNT (sign diff), neurite outgrowth", "setting": "NT2 neurons", "result": "No"}, {"measurement": "IC50 ratio (IC50 unspecific/IC50 specific), neurite outgrowth", "setting": "NT2 neurons; [6]", "result": 1.0}, {"measurement": "IC50 ratio (IC50 unspecific/IC50 specific), neurite outgrowth", "setting": "NT2 neurons; threshold of prediction model 2.02, listed as fipronil", "result": 1}, {"measurement": "IC50 ratio (IC50 unspecific/IC50 specific), migration", "setting": "NT2 precursor cells [2]; [7]", "result": 2.49}]}
{"molecule": "CC(=O)Nc1ccc(O)cc1", "note": "[AAP, acetaminophen (paracetamol)]", "values": [{"measurement": "IC50 ratio (IC50 unspecific/IC50 specific), migration", "setting": "NT2 precursor cells [3]", "result": "1,21"}]}
{"molecule": "N#Cc1nn(-c2c(Cl)cc(C(F)(F)F)cc2Cl)c(N)c1S(=O)(=O)C(F)(F)F", "note": "[Fipronil sulfone, 5-Amino-1-[2,6-dichloro-4-(trifluoromethyl)phenyl]-4-(trifluoromethylsulfonyl)pyrazole-3-carbonitrile]", "values": [{"measurement": "DNT (IC50 ratio), neuronal differentiation", "setting": "[1]", "result": "No"}, {"measurement": "DNT (sign diff), neuronal differentiation", "setting": "[1]", "result": "Yes"}, {"measurement": "IC50 ratio (IC50 unspecific/IC50 specific), neuronal differentiation", "setting": "[1]; [5]", "result": 1.62}, {"measurement": "DNT (IC50 ratio), neurite outgrowth", "setting": "NT2 neurons", "result": "No"}, {"measurement": "DNT (sign diff), neurite outgrowth", "setting": "NT2 neurons", "result": "No"}, {"measurement": "IC50 ratio (IC50 unspecific/IC50 specific), neurite outgrowth", "setting": "NT2 neurons; [6]", "result": 1.27}, {"measurement": "DNT (IC50 ratio), migration", "setting": "NT2 precursor cells [2]", "result": "Yes"}, {"measurement": "DNT (sign diff), migration", "setting": "NT2 precursor cells [2]", "result": "Yes"}, {"measurement": "IC50 ratio (IC50 unspecific/IC50 specific), migration", "setting": "NT2 precursor cells [2]; [7]", "result": 4.41}]}
{"molecule": "CC1(C)S[C@@H]2[C@H](NC(=O)Cc3ccccc3)C(=O)N2[C@H]1C(=O)O", "note": "[PG, penicillin G]", "values": [{"measurement": "IC50 ratio (IC50 unspecific/IC50 specific), neurite outgrowth", "setting": "NT2 neurons; [6]", "result": "1,00"}, {"measurement": "IC50 ratio (IC50 unspecific/IC50 specific), neuronal differentiation", "setting": "[4]", "result": "1,15"}, {"measurement": "IC50 ratio (IC50 unspecific/IC50 specific), migration", "setting": "NT2 precursor cells [3]", "result": "1,74"}]}
{"molecule": "CC(C)=CCC/C(C)=C/CC/C(C)=C/CC[C@]1(C)CCc2c(C)c(O)c(C)c(C)c2O1", "note": "[α-tocotrienol, (2R)-2,5,7,8-Tetramethyl-2-[(3E,7E)-4,8,12-trimethyltrideca-3,7,11-trienyl]-3,4-dihydrochromen-6-ol]", "values": [{"measurement": "IC50 ratio (IC50 unspecific/IC50 specific), neuronal differentiation", "setting": "[1]; [5]", "result": "1,84"}, {"measurement": "IC50 ratio (IC50 unspecific/IC50 specific), neurite outgrowth", "setting": "NT2 neurons; [6]", "result": "1,00"}]}
{"molecule": "N[C@@H](CCC(=O)[O-])C(=O)O.[Na+]", "note": "[Glu, sodium glutamate]", "values": [{"measurement": "IC50 ratio (IC50 unspecific/IC50 specific), neuronal differentiation", "setting": "[4]", "result": "1,96"}, {"measurement": "IC50 ratio (IC50 unspecific/IC50 specific), migration", "setting": "NT2 precursor cells [3]", "result": "1,09"}]}
{"molecule": "O=CC[C@@H](O)[C@H](O)[C@H](O)CO", "note": "[2DG, 2-desoxy glucose]", "values": [{"measurement": "IC50 ratio (IC50 unspecific/IC50 specific), neurite outgrowth", "setting": "NT2 neurons; [6]", "result": "1,29"}]}
{"molecule": "C=C(C)[C@H]1Cc2c(ccc3c2O[C@@H]2COc4cc(OC)c(OC)cc4[C@@H]2C3=O)O1", "note": "[Rotenone, (1S,6R,13S)-16,17-Dimethoxy-6-prop-1-en-2-yl-2,7,20-trioxapentacyclo[11.8.0.0^3,11.0^4,8.0^14,19]henicosa-3(11),4(8),9,14,16,18-hexaen-12-one]", "values": [{"measurement": "DNT (IC50 ratio), neuronal differentiation", "setting": "[1]", "result": "Yes"}, {"measurement": "DNT (sign diff), neuronal differentiation", "setting": "[1]", "result": "Yes"}, {"measurement": "IC50 ratio (IC50 unspecific/IC50 specific), neuronal differentiation", "setting": "[1]; [5]", "result": 19.3}, {"measurement": "DNT (IC50 ratio), neurite outgrowth", "setting": "NT2 neurons", "result": "Yes"}, {"measurement": "DNT (sign diff), neurite outgrowth", "setting": "NT2 neurons", "result": "Yes"}, {"measurement": "IC50 ratio (IC50 unspecific/IC50 specific), neurite outgrowth", "setting": "NT2 neurons; [6]", "result": 18.16}, {"measurement": "DNT (IC50 ratio), migration", "setting": "NT2 precursor cells [2]", "result": "Yes"}, {"measurement": "DNT (sign diff), migration", "setting": "NT2 precursor cells [2]", "result": "Yes"}, {"measurement": "IC50 ratio (IC50 unspecific/IC50 specific), migration", "setting": "NT2 precursor cells [2]; [7]", "result": 6.59}]}
{"molecule": "OO", "note": "[H2O2, hydrogen peroxide]", "values": [{"measurement": "IC50 ratio (IC50 unspecific/IC50 specific), neuronal differentiation", "setting": "[1]", "result": "1,09"}, {"measurement": "IC50 ratio (IC50 unspecific/IC50 specific), neurite outgrowth", "setting": "NT2 neurons", "result": "1,63"}, {"measurement": "IC50 ratio (IC50 unspecific/IC50 specific), migration", "setting": "NT2 precursor cells [2]", "result": "1,71"}]}
{"molecule": "CC(=O)N[C@@H](CS)C(=O)O", "note": "[NAC, (2R)-2-Acetamido-3-sulfanylpropanoic acid]", "values": [{"measurement": "IC50 ratio (IC50 unspecific/IC50 specific), neuronal differentiation", "setting": "[1]; [5]", "result": "1,00"}, {"measurement": "IC50 ratio (IC50 unspecific/IC50 specific), neurite outgrowth", "setting": "NT2 neurons; [6]", "result": "1,00"}, {"measurement": "IC50 ratio (IC50 unspecific/IC50 specific), migration", "setting": "NT2 precursor cells [2]; [7]", "result": "1,37"}]}
